According to PubChem BioAssay AID2685 (National Center for Advancing Translational Sciences (NCATS), 2010):
Out of some 320,000 compounds screened, about 2,100 (0.66%) were called active. The shares of active, inactive and inconclusive entries below differ from those in the screen. Calls follow the shape of the dose curve; as a rule, active = well fitted inhibition curve with a large enough effect in the signal ratio, with a control signal flat (not every such curve was filed as active); inconclusive = small, poorly fitted or top-dose-only effect, or effect the other way, or a change in a side signal; inactive = flat fitted curve, though single readings scatter; the % refers to the signal ratio. A potency beside an inconclusive call is a rough fit, not a confirmed value.

Assay: qHTS Assay for Lipid Storage Modulators in Drosophila S3 Cells
Conditions: BODIPY lipid droplet fluorescence, 18-24 h, cells fed with added oleic acid; lipid storage change, negative = inhibition: at 46.1 µM (top of the series) unless noted
Procedure, shortened: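 Drosophila S3 cells got compounds at several concentrations plus oleic acid (400 uM solution). Laser-scanning cytometry with 488 nm excitation read lipid droplets at 500-530 nm and cells at 575-640 nm. Percent activity was relative to 20 uM Triacsin C.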
% is scaled to controls: 0 for no effect and ±100 for the full control effect; potency is read from the fitted curve at half-maximal effect.

| SMILES | lipid storage change, negative = inhibition | Potency |
| --- | --- | --- |
| CC(C)Cn1c(N)c(C(=O)COC(=O)c2ccccc2F)c(=O)n(C)c1=O | inconclusive: 13.8% |  |
| Cc1cc(NC(=O)CN2C(=O)NC(CCc3ccccc3)C2=O)no1 (centres undefined) | inconclusive: 3.9% |  |
| O=C(Nc1cc(S(=O)(=O)N2CCOCC2)ccc1N1CCCCC1)c1ccccc1 |  | inconclusive: 116 nM [rising, full curve, poor fit] |
| Cc1nc2ccc(C(=O)N/N=C/c3ccc(O)cc3)cc2[nH]1 | inconclusive: 135% |  |
| Cc1cc(Cl)ccc1OCC(=O)OCC(=O)Nc1cccnc1Cl | inconclusive: -1.23% |  |
| O=C(COC(=O)C1CC1)Nc1ccc(Oc2ccccc2)cc1 |  | inconclusive: 11600 nM [falling, partial curve, poor fit] |
| Fc1ccccc1/C=N/n1c(C2CCCCC2)n[nH]c1=S | inconclusive: -74.3% |  |
| C#CCOc1ccc(Br)cc1/C=N/O |  | inconclusive: 731 nM [activator, single point] |
| CCCCN(c1ccccc1)S(=O)(=O)c1ccc2c(c1)CCN2C(=O)CCC(=O)O | inconclusive: -28.2% |  |
| COc1ccc(S(=O)(=O)Nc2ccc(S(=O)(=O)N3CCOCC3)cc2)cc1 |  | inconclusive: 206 nM [activator, full curve] |
| COc1ccc(CN2CCN(C(=O)c3cccc4ccccc34)CC2)c(OC)c1OC | inconclusive: 14.3% |  |
| Cn1c(=O)c(C(=O)NNC(=O)c2ccc(Br)cc2)c(O)c2ccccc21 |  | active: 16400 nM |
| O=C(O)C1CC=CCC1C(=O)Nc1cccc(Cl)c1 (centres undefined) | inconclusive: 19.1% |  |
| COc1ccc(-n2nc(C(=O)NCC(=O)N3CCCCCC3)c3ccccc3c2=O)c(OC)c1 |  | inconclusive: 6510 nM [falling, single point] |
| CCCCNC(=O)Cn1c(=O)c2c(ncn2CCC(C)C)n(Cc2ccccc2)c1=O | inconclusive: -100% |  |
| COc1ccc(-n2ncc3c(N4CCN(c5cccc(C)c5C)CC4)ncnc32)cc1 |  | inconclusive: 8200 nM [activator, partial curve] |
| COc1ccc(C(=O)Oc2ccc(N(C)S(=O)(=O)c3ccccc3)cc2)cc1[N+](=O)[O-] |  | inconclusive: 206 nM [falling, full curve] |
| CN(c1ccccc1)S(=O)(=O)c1ccc(Cl)c(C(=O)Nc2nc3ccccc3[nH]2)c1 |  | inconclusive: 1840 nM [activator, partial curve] |
| Cc1ccc(C)c(CNS(=O)(=O)c2c(C)[nH]c(C)c2C(=O)N2CCCCC2)c1 |  | inconclusive: 580 nM [falling, single point] |
| COc1ccc(CNC(=O)COc2ccc(S(=O)(=O)N3CCCCC3)cc2Cl)cc1 | inconclusive: -39.8% |  |
| NC(=O)CC(O)c1cccc(Cl)c1 (centres undefined) | inconclusive: 44.3% |  |
| Cc1cc(Oc2cnn(C(C)(C)C)c(=O)c2Cl)cc(C(C)C)c1 |  | inconclusive: 18400 nM [falling, single point] |
| CCOC(=O)c1sc(N=NC2=C(O)CCCC2=O)c(C(=O)OCC)c1C | inconclusive: 8.61% |  |
| Cc1ccc(SCC(=O)OCC(=O)N(C)C2CCS(=O)(=O)C2)cc1C (centres undefined) | inconclusive: 1.92% |  |
| O=C(Nc1nc2ccccc2s1)C1CCCO1 (centres undefined) | inconclusive: 7% |  |

12 entries from above, sorted by length of the SMILES, falling.

| SMILES | lipid storage change, negative = inhibition | Potency |
| --- | --- | --- |
| CN(c1ccccc1)S(=O)(=O)c1ccc(Cl)c(C(=O)Nc2nc3ccccc3[nH]2)c1 |  | inconclusive: 1840 nM [activator, partial curve] |
| COc1ccc(-n2nc(C(=O)NCC(=O)N3CCCCCC3)c3ccccc3c2=O)c(OC)c1 |  | inconclusive: 6510 nM [falling, single point] |
| Cc1ccc(C)c(CNS(=O)(=O)c2c(C)[nH]c(C)c2C(=O)N2CCCCC2)c1 |  | inconclusive: 580 nM [falling, single point] |
| COc1ccc(CNC(=O)COc2ccc(S(=O)(=O)N3CCCCC3)cc2Cl)cc1 | inconclusive: -39.8% |  |
| CC(C)Cn1c(N)c(C(=O)COC(=O)c2ccccc2F)c(=O)n(C)c1=O | inconclusive: 13.8% |  |
| Cn1c(=O)c(C(=O)NNC(=O)c2ccc(Br)cc2)c(O)c2ccccc21 |  | active: 16400 nM |
| CCOC(=O)c1sc(N=NC2=C(O)CCCC2=O)c(C(=O)OCC)c1C | inconclusive: 8.61% |  |
| Cc1cc(NC(=O)CN2C(=O)NC(CCc3ccccc3)C2=O)no1 (centres undefined) | inconclusive: 3.9% |  |
| Cc1nc2ccc(C(=O)N/N=C/c3ccc(O)cc3)cc2[nH]1 | inconclusive: 135% |  |
| Cc1cc(Cl)ccc1OCC(=O)OCC(=O)Nc1cccnc1Cl | inconclusive: -1.23% |  |
| O=C(Nc1nc2ccccc2s1)C1CCCO1 (centres undefined) | inconclusive: 7% |  |
| NC(=O)CC(O)c1cccc(Cl)c1 (centres undefined) | inconclusive: 44.3% |  |

Continued.

| SMILES | lipid storage change, negative = inhibition | Potency |
| --- | --- | --- |
| CC12CCC(C(=O)NCc3ccc(F)cc3)(OC1=O)C2(C)C (centres undefined) | inconclusive: -36.8% |  |
| COc1ccc(C(=O)N/C(=C\c2cccc3ccccc23)C(=O)N2CCN(C)CC2)cc1 | inconclusive: -38% |  |
| CCOC(=O)N/N=C/c1ccc(N2CCOCC2)s1 | inconclusive: 7.57% |  |
| O=C(NCCCNCc1ccccc1)c1ccncc1 | inconclusive: -53.8% |  |
| CC1CCCC(NC(=O)NC(=O)COC(=O)c2ccc(O)cc2O)C1C (centres undefined) | inconclusive: -9.04% |  |
| Cc1cc(=O)oc2cc(OCc3ccc(C(=O)OCC(=O)Nc4ccccc4OC(F)F)cc3)ccc12 | inconclusive: 24.6% |  |
| C=CCn1c(C)cc(C(=O)CSc2nnc(C3CC3)n2C2CC2)c1C |  | inconclusive: 920 nM [falling, full curve, poor fit] |
| CC(C)Oc1cccc(C(=O)Nc2ccc(N3CCN(C)CC3)cc2)c1 | inconclusive: 57.5% |  |
| COCCN(CC(=O)NCC1CCCO1)C(=O)CCC(=O)Nc1ccccn1 (centres undefined) | inconclusive: -37.5% |  |
| O=C(O)c1ccc(/C=N/NC(=O)c2cc(-c3cccs3)nc3ccccc23)cc1 | inconclusive: -8.36% |  |
| COc1ccccc1CNC(=O)CCCOc1cc(=O)n(C)c2ccccc12 |  | inconclusive: 920 nM [activator, partial curve] |
| Cn1nnnc1SCC(=O)c1cccs1 |  | inconclusive: 731 nM [falling, full curve, poor fit] |
| COc1cccc(C(=O)Nc2ccc(NC(=O)c3ccco3)nc2)c1 | inconclusive: 35.9% |  |
| O=C(OCC(=O)N1CCOCC1)c1cc(F)c(F)cc1Cl | inconclusive: -8.68% |  |
| CCCCNC(=O)CCn1nc(-c2ccc(Cl)cc2)ccc1=O |  | inconclusive: 14600 nM [activator, single point] |
| COc1ccc(-n2c(C)cc(C(=O)CSc3ccc(NC(C)=O)cc3)c2C)cc1 | inconclusive: 22% |  |
| COC(=O)C1(C)NC(c2ccc(F)cc2)C2C(=O)N(c3ccc(C)cc3)C(=O)C21 (centres undefined) | inconclusive: -42.1% |  |
| O=C(COC(=O)CNC(=O)C1CCCCC1)Nc1cccc(F)c1 | inconclusive: 52% |  |
| O=C(O)c1cccc(-c2ccc3c(c2)OCO3)c1 |  | inconclusive: 29100 nM [activator, single point] |
| C=C(C)C1CC=C(CN2CCC(O)CC2)CC1 (centres undefined) | inconclusive: -39.8% |  |
| CSC1=C(C#N)C(CC(C)C)C(C(C)=O)=C(C)N1 (centres undefined) | inconclusive: 14.7% |  |
| O=C(C1CC(=O)N(c2ccc3c(c2)OCCO3)C1)N1CCN(c2ccccc2)CC1 (centres undefined) | inconclusive: -8.86% |  |
| CSc1ccccc1OCc1cc(C(=O)NCc2csc(C(C)C)n2)no1 | inconclusive: -33.4% |  |
| COc1ccc(Cl)cc1NC(=S)Nc1cccnc1 | inconclusive: -43.1% [at 0.00295 µM] |  |
